The name of at least one read-out is uncertain.
Assay: Biopharmaceutics Classification System (BCS) classification
Type: physicochemical
Description: As a result, Class IV drugs have poor bioavailability and are usually not well-absorbed while having high variability. Preparing a stable, bioavailable composition containing {2-[3-cyclohexyl-3-(trans-4-propoxy-cyclohexyl)-ureido]-thiazol-5-ylsulfanyl}-acetic acid or a pharmaceutically acceptable salt thereof is, however, not straight forward.

Q: With `CCCO[C@H]1CC[C@H](N(C(=O)Nc2ncc(SCC(=O)O)s2)C2CCCCC2)CC1` [{2-[3-cyclohexyl-3-(trans-4-propoxy-cyclohexyl)-ureido]-thiazol-5-ylsulfanyl}-acetic acid] as the compound, how does the permeability read?
A: low permeability

Source: US20160015638A1, “STABLE GLUCOKINASE ACTIVATOR COMPOSITIONS” (vTv Therapeutics LLC, priority 2013, published 2016)
